Test results published in article PMC3447885.
Results are given in words; binding and its absence hold for the method and conditions named.

Target: MSL2 CXC domain construct CXC-3 (residues 520-570, C560G) (D. melanogaster) (UniProt P50534)
Assay: native MS; CXC-3 exchanged into 200 mM ammonium acetate, electrospray ionization on a Q-Star instrument, conditions that preserve the native protein structure; both purified

B1: MSL2 CXC domain construct CXC-3 (residues 520-570, C560G) (domain or fragment, UniProt P50534 520-570)
chain: SPPKPKCRCGISGSSNTLTTCRNSRCPCYKSYNSCAGCHCVGCKNPHKEDYV
binding: no binding
